{"sequences": {"note": "Chains of the proteins cited; added tags and fusions are not shown. Lines headed by an entry give the natural chain unless they say otherwise; changes in a name come on top.", "UniProt Q15722": "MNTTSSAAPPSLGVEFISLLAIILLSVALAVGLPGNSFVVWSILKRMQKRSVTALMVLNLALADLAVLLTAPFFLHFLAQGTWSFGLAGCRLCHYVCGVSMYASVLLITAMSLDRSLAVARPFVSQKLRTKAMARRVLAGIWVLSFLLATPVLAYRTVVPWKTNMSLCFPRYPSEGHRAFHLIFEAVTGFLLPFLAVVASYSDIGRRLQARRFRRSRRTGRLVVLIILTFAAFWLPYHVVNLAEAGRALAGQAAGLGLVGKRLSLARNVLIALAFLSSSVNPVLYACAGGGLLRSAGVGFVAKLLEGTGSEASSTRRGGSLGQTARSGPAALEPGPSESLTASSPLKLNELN"}, "source": "patent US20030171545A1", "about": "“Novel Protein” (priority 1999, published 2003)", "binders": {"B1": {"name": "leukotriene-B4 receptor-like polypeptide (LTRGW1) (receptor)", "chain": "MAPSHRASQVGFCPTPERPLWRLPPTCRPRRMSVCYRPPGNETLLSWKTSRATGTAFLLLAALLGLPGNGFVVWSLAGWRPARGRPLAATLVLHLALADGAVLLLTPLFVAFLTRQAWPLGQAGCKAVYYVCALSMYASVLLTGLLSLQRCLAVTRPFLAPRLRSPALARRLLLAVWLAALLLAVPAAVYRHLWRDRVCQLCHPSPVHAAAHLSLETLTAFVLPFGLMLGCYSVTLARLRGARWGSGRHGARVGRLVSAIVLAFGLLWAPYHAVNLLQAVAALAPPEGALAKLGGAGQAARAGTTALAFFSSSVNPVLYVFTAGDLLPRAGPRFLTRLFEGSGEARGGGRSREGTMELRTTPQLKVVGQGRGNGDPGGGMEKDGPEWDL"}}, "key": {"[1]": {"molecular_target": "leukotriene B4 receptor (BLTR) (human) (UniProt Q15722)", "assay": "co-immunoprecipitation from lysates of transiently transfected CHO cells, SDS-PAGE and immunoblot, without ligand stimulation"}, "[2]": {"molecular_target": "leukotriene B4 receptor (BLTR) (human) (UniProt Q15722)", "assay": "co-immunoprecipitation (legend of FIG. 6)"}}, "note": "No constants are given. Whether binding was seen depends on the method and setting. Binding seen in cells or lysates may run through a third protein. Some binding calls cover weakened binding; strength is not graded here.", "data": [{"binder": "B1", "values": [{"measurement": "binding", "setting": "[1]", "result": "binds"}, {"measurement": "binding", "setting": "[2]", "result": "binds"}]}]}
